Publication PMC5828529
These are yes or no findings as the source states them, for the method shown. Binding seen in cells or lysates may run through a third protein. These calls come from enrichment with a bait or labelling near it, and not all partners need be listed. For part of these data: No binding means not detected with the bait. One block for each binder: values may come before it.

Columns and labels:
[1] = target: T1, Mer2-TAP (S. cerevisiae), P21651; assay: affinity purification with mass spectrometry; Mer2-TAP purified from meiotic cells (VBD1402, t = 3.5 hr), TAP lysis buffer with 300 mM NaCl, 0.5% NP-40; untagged control ORD7339; conditions: remark: other sources report otherwise
T1 chain: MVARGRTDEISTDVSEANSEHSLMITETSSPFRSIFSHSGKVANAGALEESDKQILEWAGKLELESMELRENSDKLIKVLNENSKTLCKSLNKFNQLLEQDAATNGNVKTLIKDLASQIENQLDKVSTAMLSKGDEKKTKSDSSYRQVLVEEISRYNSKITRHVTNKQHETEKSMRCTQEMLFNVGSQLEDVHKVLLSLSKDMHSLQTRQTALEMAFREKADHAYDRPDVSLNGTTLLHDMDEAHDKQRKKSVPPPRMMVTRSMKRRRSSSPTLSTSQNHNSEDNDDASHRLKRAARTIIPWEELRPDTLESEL

Mer2-TAP (S. cerevisiae) = target: T2, Mer2-TAP (S. cerevisiae) (UniProt P21651); assay: as above
T2 sequence: T1 chain

Spp1-TAP (S. cerevisiae) = target: T3, Spp1-TAP (S. cerevisiae) (UniProt Q03012); assay: affinity purification with mass spectrometry; Spp1-TAP purified from SET1 meiotic cells (VBD1266, t = 3.5 hr), TAP lysis buffer with 300 mM NaCl, 0.5% NP-40; untagged control ORD7339; label-free nanoLC-MS/MS, three biological replicates
T3 sequence: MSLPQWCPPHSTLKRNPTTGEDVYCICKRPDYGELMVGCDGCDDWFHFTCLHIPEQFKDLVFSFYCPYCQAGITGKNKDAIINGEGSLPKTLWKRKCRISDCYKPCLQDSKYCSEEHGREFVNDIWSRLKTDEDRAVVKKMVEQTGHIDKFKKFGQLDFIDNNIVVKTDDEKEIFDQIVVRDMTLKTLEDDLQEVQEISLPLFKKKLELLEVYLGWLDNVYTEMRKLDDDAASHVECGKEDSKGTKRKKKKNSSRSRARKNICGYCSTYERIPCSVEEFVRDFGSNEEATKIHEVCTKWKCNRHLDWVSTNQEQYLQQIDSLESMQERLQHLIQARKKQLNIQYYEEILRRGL

B1: Rec114 (endogenous), P32841 1-428 (protein)
chain: MYEYCSVVIKKYSKYTIPSFAPNGFQSMLEPPQIDKWQHLSANCTLQFRVLLMDSRQILINVVLNNSTLLENIRLPLGDNQDLIQFSCKSPIISCKYISEEFGPRMLRRFQMNLPNDVEFNRTVVSLKNLNFVLRTARTSIAQSTITSQVQGNNNGTKVCFTEGPKVSSYTNPNTQFQTQNMIMDFSQRYQEESERESNNRSNITLPHDSIQIAQQIWPNTDLNVVQSSQDLNTPMATQTVLGRPESLIVQPLEVSQSPPNTTNCLPNAENKKKKVDTTSDFTSRKEIALCKTGLLETIHIPKERESQMQSVTGLDATPTIIWSPGKDNTAKKNTSNKKNIDDKLTNPQKSGNTHTPDRNKEVLPNGTLNETRKEASPSEGLTIRVKNVNRNASRKISKRLIKEKLKDEEFMKWVNKVETVLNKMFEK
- binding [1]: no binding

B2: Swd1 (endogenous) (protein, UniProt P39706 1-426)
chain: MNILLQDPFAVLKEHPEKLTHTIENPLRTECLQFSPCGDYLALGCANGALVIYDMDTFRPICVPGNMLGAHVRPITSIAWSPDGRLLLTSSRDWSIKLWDLSKPSKPLKEIRFDSPIWGCQWLDAKRRLCVATIFEESDAYVIDFSNDPVASLLSKSDEKQLSSTPDHGYVLVCTVHTKHPNIIIVGTSKGWLDFYKFHSLYQTECIHSLKITSSNIKHLIVSQNGERLAINCSDRTIRQYEISIDDENSAVELTLEHKYQDVINKLQWNCILFSNNTAEYLVASTHGSSAHELYIWETTSGTLVRVLEGAEEELIDINWDFYSMSIVSNGFESGNVYVWSVVIPPKWSALAPDFEEVEENVDYLEKEDEFDEVDEAEQQQGLEQEEEIAIDLRTREQYDVRGNNLLVERFTIPTDYTRIIKMQSS
- binding (Mer2-TAP (S. cerevisiae)): no binding

B3: Spp1 (endogenous) (protein, UniProt Q03012 1-353)
chain: T3 sequence
- binding (Mer2-TAP (S. cerevisiae)): binds

B4: Set1 (endogenous) (enzyme, UniProt P38827 1-1080)
chain: MSNYYRRAHASSGSYRQPQEQPQYSRSGHYQYSNGHSHQQYSSQYNQRRRYNHNDGTRRRYNDDRPHSSNNASTRQYYATNNSQSGPYVNKKSDISSRRGMSQSRYSNSNVHNTLASSSGSLPTESALLLQQRPPSVLRYNTDNLKSKFHYFDPIKGEFFNKDKMLSWKATDKEFSETGYYVVKELQDGQFKFKIKHRHPEIKASDPRNENGIMTSGKVATHRKCRNSLILLPRISYDRYSLGPPPSCEIVVYPAQDSTTTNIQDISIKNYFKKYGEISHFEAFNDPNSALPLHVYLIKYASSDGKINDAAKAAFSAVRKHESSGCFIMGFKFEVILNKHSILNNIISKFVEINVKKLQKLQENLKKAKEKEAENEKAKELQGKDITLPKEPKVDTLSHSSGSEKRIPYDLLGVVNNRPVLHVSKIFVAKHRFCVEDFKYKLRGYRCAKFIDHPTGIYIIFNDIAHAQTCSNAESGNLTIMSRSRRIPILIKFHLILPRFQNRTRFNKSSSSSNSTNVPIKYESKEEFIEATAKQILKDLEKTLHVDIKKRLIGPTVFDALDHANFPELLAKRELKEKEKRQQIASKIAEDELKRKEEAKRDFDLFGLYGGYAKSNKRNLKRHNSLALDHTSLKRKKLSNGIKPMAHLLNEETDSKETTPLNDEGITRVSKEHDEEDENMTSSSSEEEEEEAPDKKFKSESEPTTPESDHLHGIKPLVPDQNGSSDVLDASSMYKPTATEIPEPVYPPEEYDLKYSQTLSSMDLQNAIKDEEDMLILKQLLSTYTPTVTPETSAALEYKIWQSRRKVLEEEKASDWQIELNGTLFDSELQPGSSFKAEGFRKIADKLKINYLPHRRRVHQPLNTVNIHNERNEYTPELCQREESSNKEPSDSVPQEVSSSRDNRASNRRFQQDIEAQKAAIGTESELLSLNQLNKRKKPVMFARSAIHNWGLYALDSIAAKEMIIEYVGERIRQPVAEMREKRYLKNGIGSSYLFRVDENTVIDATKKGGIARFINHCCDPNCTAKIIKVGGRRRIVIYALRDIAASEELTYDYKFEREKDDEERLPCLCGAPNCKGFLN
- binding (Spp1-TAP (S. cerevisiae)): binds

The next lines start with the values.

- binding [1]: no binding
B5: Mei4 (endogenous), P29467 1-408 (protein)
chain: MSRGKLEDMEQKETSEVDWIICFALIQSRNPTLWKRALSRKKGDVEDVGALKSEKNLKINPRENSKHIYKWVAPFENGFLNNKSLFAHLEPIYNFLCQNKYKSFEDAVGLKELQSFSKDVSTADINNWFLPRYKILLKILSLKTKEIDFRGLSQVFQTLQILLVSHYSHRIDSDSSFKRTLIDVHVFNFIAKFLFNRILLKKNQNDPKWLQNFYDQGDGKHLCDKVDYKRLCSLHFTLIYSIINIQLIKIKTNQTFEPQILKYVSVLKLIEHILIIIESLIHVLIRFVSKHKLICINRKKAYCRVYLERELSLKKTYLKNFYSVISGVPEKELGGLLKILKIVILSLLETFESIEWQHLKPFLEKFPAHEISLQKKRKYIQAALLITAERNLIARFRLSRWFNETENI

- binding (Spp1-TAP (S. cerevisiae)): binds
B6: Mer2 (endogenous) (protein, UniProt P21651 1-314)
chain: T1 chain
